Reference: the supplement of paper PMC10849652
The other results are listed elsewhere or left out.

The chains behind the UniProt entries cited, without tags or fusion partners. Where a name states a change or a piece, a line headed by the entry shows the natural chain unless it says otherwise.
UniProt O60934: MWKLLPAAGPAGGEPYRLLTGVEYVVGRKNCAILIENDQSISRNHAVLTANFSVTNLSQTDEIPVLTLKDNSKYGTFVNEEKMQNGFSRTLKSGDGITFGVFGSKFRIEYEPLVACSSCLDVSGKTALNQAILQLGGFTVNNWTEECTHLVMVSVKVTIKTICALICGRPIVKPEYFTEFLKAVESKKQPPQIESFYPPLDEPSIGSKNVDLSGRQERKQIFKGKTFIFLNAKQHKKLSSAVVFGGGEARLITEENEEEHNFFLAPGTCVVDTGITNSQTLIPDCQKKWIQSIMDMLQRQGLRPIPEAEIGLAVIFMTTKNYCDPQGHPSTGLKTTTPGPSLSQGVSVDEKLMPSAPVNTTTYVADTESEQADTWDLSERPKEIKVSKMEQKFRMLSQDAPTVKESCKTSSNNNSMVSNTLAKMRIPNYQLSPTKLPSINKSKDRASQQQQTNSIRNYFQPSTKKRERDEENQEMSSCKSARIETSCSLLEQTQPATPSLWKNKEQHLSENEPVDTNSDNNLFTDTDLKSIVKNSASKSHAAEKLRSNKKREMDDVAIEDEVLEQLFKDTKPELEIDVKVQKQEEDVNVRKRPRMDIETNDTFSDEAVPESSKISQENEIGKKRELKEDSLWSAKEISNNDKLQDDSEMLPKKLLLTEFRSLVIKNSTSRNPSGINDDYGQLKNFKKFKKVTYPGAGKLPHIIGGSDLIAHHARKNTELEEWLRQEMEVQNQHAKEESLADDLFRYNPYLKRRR
UniProt O43674, whole entry, looked up: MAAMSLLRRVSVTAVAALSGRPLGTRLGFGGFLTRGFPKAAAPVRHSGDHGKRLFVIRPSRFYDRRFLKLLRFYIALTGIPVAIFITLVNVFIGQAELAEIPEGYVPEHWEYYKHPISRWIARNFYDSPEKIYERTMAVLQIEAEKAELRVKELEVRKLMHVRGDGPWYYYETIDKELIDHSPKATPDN
UniProt Q9Y375: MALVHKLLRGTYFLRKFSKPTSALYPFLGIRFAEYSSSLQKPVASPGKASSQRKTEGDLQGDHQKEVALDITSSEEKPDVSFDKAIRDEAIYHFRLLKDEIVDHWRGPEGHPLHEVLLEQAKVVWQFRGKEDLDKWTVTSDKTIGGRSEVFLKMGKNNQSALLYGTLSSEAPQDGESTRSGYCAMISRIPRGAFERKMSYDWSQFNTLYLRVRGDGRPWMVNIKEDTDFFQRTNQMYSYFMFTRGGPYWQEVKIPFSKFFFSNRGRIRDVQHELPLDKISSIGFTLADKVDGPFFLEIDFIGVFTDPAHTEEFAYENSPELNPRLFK
UniProt O75251, whole entry, looked up: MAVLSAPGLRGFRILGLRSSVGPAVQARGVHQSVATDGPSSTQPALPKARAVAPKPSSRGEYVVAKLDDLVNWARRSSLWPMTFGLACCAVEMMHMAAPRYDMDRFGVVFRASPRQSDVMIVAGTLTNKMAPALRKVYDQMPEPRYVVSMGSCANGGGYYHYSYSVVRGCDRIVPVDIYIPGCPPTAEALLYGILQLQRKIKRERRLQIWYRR
UniProt Q6PIU2: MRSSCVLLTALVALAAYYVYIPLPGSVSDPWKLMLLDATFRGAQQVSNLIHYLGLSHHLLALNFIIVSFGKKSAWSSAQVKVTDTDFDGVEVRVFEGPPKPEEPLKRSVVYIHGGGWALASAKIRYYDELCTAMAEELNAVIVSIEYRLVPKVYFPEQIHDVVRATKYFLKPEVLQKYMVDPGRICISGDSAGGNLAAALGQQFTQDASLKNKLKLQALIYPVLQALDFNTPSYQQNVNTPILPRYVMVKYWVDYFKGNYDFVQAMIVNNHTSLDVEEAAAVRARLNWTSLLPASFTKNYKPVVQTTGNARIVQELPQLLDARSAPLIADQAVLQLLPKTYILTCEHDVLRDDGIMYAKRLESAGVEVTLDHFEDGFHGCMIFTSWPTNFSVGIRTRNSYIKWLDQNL
UniProt Q14CX7, whole entry, looked up: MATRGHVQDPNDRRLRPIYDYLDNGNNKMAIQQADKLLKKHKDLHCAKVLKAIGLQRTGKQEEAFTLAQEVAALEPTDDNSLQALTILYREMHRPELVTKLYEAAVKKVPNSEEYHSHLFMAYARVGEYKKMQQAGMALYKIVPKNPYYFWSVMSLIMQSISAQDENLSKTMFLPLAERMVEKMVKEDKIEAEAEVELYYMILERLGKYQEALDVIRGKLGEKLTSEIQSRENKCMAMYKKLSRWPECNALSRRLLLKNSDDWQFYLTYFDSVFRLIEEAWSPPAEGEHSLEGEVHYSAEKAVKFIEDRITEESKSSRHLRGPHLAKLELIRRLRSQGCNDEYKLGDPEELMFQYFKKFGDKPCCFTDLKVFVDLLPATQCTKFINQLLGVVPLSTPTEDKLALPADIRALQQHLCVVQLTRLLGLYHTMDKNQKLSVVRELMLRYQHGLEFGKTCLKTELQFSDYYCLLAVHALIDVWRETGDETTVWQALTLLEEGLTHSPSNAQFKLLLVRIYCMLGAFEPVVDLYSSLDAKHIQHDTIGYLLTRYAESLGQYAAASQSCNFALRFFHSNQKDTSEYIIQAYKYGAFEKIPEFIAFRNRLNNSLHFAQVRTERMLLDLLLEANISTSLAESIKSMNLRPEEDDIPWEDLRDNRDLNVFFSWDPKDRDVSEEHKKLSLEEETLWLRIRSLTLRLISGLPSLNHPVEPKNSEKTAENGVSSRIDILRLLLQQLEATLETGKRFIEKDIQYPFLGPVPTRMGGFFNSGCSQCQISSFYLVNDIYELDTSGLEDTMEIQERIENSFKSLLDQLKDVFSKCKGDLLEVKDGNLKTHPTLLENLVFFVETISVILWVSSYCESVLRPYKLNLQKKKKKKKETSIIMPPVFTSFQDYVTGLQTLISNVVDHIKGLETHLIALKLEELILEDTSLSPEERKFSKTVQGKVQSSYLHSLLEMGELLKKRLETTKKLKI
UniProt O95168, whole entry, looked up: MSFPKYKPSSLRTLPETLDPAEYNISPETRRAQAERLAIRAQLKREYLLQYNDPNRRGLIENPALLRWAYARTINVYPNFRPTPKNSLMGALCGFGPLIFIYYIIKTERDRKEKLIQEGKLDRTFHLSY
UniProt P61599, whole entry, looked up: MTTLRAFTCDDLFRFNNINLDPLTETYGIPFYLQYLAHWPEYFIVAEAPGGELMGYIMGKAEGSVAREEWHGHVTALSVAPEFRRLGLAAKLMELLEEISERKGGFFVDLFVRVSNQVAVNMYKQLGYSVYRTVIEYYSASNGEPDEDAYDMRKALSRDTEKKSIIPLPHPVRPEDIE
UniProt Q9UGV2: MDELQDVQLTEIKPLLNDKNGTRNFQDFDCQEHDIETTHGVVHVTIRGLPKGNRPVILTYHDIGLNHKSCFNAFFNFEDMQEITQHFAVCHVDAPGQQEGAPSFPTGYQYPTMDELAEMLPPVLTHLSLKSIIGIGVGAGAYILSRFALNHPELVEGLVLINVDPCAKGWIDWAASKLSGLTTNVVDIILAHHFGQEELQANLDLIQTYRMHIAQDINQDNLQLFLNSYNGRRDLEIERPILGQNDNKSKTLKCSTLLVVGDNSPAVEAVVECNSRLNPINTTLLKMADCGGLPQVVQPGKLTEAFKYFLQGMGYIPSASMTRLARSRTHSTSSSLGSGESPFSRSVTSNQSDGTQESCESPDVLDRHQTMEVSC
UniProt Q9BRA0: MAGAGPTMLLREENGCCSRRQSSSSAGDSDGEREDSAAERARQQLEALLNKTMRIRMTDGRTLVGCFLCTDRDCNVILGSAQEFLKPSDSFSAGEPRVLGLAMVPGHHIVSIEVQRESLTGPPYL
UniProt Q16718, whole entry, looked up: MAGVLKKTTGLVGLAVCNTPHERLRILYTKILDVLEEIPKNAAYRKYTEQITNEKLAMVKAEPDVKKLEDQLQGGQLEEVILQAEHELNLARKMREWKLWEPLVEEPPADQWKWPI
UniProt O95299, whole entry, looked up: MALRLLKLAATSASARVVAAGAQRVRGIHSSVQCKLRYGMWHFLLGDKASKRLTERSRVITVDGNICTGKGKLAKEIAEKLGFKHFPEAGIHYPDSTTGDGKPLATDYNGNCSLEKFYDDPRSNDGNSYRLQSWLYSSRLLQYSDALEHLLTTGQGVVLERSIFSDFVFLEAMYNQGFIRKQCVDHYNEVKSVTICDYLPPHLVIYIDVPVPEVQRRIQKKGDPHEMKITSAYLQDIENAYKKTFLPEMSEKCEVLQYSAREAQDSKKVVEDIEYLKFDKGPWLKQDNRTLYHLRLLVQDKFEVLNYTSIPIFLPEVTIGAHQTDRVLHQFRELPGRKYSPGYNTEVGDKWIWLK
UniProt Q16795, whole entry, looked up: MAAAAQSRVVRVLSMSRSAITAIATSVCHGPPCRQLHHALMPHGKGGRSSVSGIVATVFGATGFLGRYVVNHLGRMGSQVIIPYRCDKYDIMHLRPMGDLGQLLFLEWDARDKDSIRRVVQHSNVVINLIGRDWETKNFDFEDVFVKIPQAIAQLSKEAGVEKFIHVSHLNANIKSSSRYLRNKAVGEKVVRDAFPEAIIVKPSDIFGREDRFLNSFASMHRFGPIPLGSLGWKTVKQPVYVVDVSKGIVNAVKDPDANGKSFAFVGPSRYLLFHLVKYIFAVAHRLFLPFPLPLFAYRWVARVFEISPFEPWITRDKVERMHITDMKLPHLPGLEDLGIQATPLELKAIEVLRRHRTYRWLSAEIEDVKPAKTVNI
UniProt P46934: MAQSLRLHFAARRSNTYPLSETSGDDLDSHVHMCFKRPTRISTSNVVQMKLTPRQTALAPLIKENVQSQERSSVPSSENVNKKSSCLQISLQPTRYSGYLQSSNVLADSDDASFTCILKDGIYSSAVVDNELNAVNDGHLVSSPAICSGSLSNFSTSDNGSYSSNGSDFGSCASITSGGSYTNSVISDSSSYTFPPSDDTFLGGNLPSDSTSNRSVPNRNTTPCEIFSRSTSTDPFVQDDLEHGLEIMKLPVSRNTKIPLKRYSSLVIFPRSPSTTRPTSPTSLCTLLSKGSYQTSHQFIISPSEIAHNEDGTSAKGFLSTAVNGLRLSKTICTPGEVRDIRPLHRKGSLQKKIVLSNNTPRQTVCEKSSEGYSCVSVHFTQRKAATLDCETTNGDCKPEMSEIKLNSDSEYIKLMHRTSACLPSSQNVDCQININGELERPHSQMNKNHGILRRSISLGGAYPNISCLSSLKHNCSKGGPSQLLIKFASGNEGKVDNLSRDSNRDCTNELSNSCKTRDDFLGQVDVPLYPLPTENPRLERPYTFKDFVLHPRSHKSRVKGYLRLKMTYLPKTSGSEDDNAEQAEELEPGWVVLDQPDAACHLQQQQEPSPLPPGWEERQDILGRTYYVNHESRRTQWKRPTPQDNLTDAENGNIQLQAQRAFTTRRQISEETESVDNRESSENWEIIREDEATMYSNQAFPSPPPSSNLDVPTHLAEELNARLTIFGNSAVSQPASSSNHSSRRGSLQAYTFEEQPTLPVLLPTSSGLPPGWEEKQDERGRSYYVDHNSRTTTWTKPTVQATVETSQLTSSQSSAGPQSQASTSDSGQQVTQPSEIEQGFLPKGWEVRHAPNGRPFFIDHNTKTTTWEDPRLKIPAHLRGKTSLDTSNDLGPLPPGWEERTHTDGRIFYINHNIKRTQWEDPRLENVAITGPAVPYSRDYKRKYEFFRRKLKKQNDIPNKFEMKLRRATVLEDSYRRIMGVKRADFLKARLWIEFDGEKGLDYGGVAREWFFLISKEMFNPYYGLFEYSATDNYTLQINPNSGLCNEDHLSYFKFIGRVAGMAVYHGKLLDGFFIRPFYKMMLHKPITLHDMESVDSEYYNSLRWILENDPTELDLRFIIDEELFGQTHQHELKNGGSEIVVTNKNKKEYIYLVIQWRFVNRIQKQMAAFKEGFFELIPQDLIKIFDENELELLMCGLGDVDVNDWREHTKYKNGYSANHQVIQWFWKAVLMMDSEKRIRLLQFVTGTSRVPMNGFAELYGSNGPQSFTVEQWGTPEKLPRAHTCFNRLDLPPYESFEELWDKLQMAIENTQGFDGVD
UniProt Q99747: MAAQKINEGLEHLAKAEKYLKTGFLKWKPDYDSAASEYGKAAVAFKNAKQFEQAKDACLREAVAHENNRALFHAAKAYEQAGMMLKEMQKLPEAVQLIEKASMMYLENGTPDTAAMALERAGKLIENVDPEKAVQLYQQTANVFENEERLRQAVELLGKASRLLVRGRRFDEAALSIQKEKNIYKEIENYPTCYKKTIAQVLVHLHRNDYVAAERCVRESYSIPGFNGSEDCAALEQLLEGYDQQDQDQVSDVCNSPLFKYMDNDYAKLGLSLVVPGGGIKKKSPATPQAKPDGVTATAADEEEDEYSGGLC
UniProt Q9GZZ1: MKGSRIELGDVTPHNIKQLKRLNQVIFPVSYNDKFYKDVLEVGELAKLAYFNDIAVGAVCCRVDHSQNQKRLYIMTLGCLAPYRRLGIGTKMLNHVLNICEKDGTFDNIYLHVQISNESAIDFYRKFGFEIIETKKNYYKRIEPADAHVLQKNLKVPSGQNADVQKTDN
UniProt O43676, whole entry, looked up: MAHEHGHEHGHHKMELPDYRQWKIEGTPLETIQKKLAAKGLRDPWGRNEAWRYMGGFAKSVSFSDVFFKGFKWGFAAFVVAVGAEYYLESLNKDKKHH
UniProt O43678, whole entry, looked up: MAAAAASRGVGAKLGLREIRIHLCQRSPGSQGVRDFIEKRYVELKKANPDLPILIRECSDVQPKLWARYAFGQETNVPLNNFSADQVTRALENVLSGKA

Tests used:
Assay in all cases: log2 fold change, soluble protein after heating vs DMSO (PISA); higher = thermal stabilisation; K562 cells, 10 uM, 30 min; active = over 0.2 and 3.5 SD of the protein, either way, in both replicates (recomputed)
[1] = compound: CC1=C(C=C(C=C1)NC(=O)C2=CC(=CC=C2)C(C)(C)C#N)NC3=CC4=C(C=C3)N=CN(C4=O)C
In short: (§1)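 K562 cells at 2×10^6 cells/mL were exposed to 10 μM compound for 30 min, then aliquots were heated for 3 min across 48°C-58°C, pooled, and extracted in PBS containing 0.5% NP-40 at 4°C. The supernatant after 21,000xg for 90 min was taken as soluble protein and measured by TMTpro 16plex LC-MS/MS with channel sums equalised. Thermal stability is reported relative to control samples, with values from duplicates. Fold changes are given on a log2 scale.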

[2] = compound: CC1=C(C=C(C=C1)NC(=O)C2=CC(=CC=C2)N(C)C)NC(=O)C3=CC=C(C=C3)O
In short: as §1

[3] = compound: CC1=CC=C(C=C1)SC2=C3C=C(SC3=CN=C2)C(=O)N
In short: as §1

[4] = compound: CC1=NC(=CC=C1)C2=C(N=C(N2)C(C)(C)C)C3=CC4=NC=CN=C4C=C3
In short: as §1

Nexturastat A = compound: CCCCN(Cc1ccc(C(=O)NO)cc1)C(=O)Nc1ccccc1 [Nexturastat A]
In short: as §1

vemurafenib = compound: CCCS(=O)(=O)Nc1ccc(F)c(C(=O)c2c[nH]c3ncc(-c4ccc(Cl)cc4)cc23)c1F [vemurafenib]
In short: as §1

[5] = compound: CCCS(=O)(=O)Nc1ccc(F)c(C(=O)c2c[nH]c3ncc(Cl)cc23)c1F
In short: as §1

[6] = compound: CCCc1cc(C)[nH]c(=O)c1CNC(=O)c1cc(-c2ccnc(N3CCN(C)CC3)c2)cc2c1cnn2C(C)C
In short: as §1

givinostat = compound: CCN(CC)Cc1ccc2cc(COC(=O)Nc3ccc(C(=O)NO)cc3)ccc2c1 [givinostat]
In short: as §1

barasertib = compound: CCN(CCCOc1ccc2c(Nc3cc(CC(=O)Nc4cccc(F)c4)[nH]n3)ncnc2c1)CCOP(=O)(O)O [barasertib]
In short: as §1

Measured: log2 fold change

NBN (UniProt O60934)
inactive: [1] 0.017 | [2] -0.008 | [3] -0.01 | [4] 0.014 | Nexturastat A -0.03 | vemurafenib 0.081 | [5] 0.047 | [6] 0.04 | givinostat 0.054 | barasertib 0.022

NAA10 (UniProt P41227)
inactive: [1] 0.004 | [2] 0.008 | [3] 0.042 | [4] 0.06 | Nexturastat A -0.094 | vemurafenib 0.056 | [5] 0.064 | [6] 0.052 | givinostat 0.014 | barasertib 0.029

NECAP1 (UniProt Q8NC96)
inactive: [1] -0.008 | [2] -0.04 | [3] -0.018 | [4] 0.021 | Nexturastat A -0.031 | vemurafenib 0.033 | [5] 0.013 | [6] 0.06 | givinostat -0.02 | barasertib -0.033

NDUFB5 (UniProt O43674)
inactive: [1] -0.011 | [2] 0.032 | [3] 0.022 | [4] 0.036 | Nexturastat A -0.039 | vemurafenib 0.04 | [5] 0.092 | [6] -0.016 | givinostat -0.072 | barasertib 0.029

NDUFAF1 (UniProt Q9Y375)
inactive: [1] -0.009 | [2] 0.023 | [3] 0.009 | [4] 0.026 | Nexturastat A -0.055 | vemurafenib -0.022 | [5] -0.006 | [6] -0.002 | givinostat 0.003 | barasertib -0.004

NDUFS7 (UniProt O75251)
inactive: [1] 0.008 | [2] 0.004 | [3] 0.017 | [4] 0.025 | Nexturastat A -0.019 | vemurafenib -0.025 | [5] 0.028 | [6] -0.039 | givinostat 0.113 | barasertib 0.016

NADK2 (UniProt Q4G0N4)
inactive: [1] -0.026 | [2] 0.027 | [3] -0.01 | [4] -0.015 | Nexturastat A -0.016 | vemurafenib -0.007 | [5] 0 | [6] 0.019 | givinostat -0.022 | barasertib -0.004

NCEH1 isoform 2 (UniProt Q6PIU2)
inactive: [1] 0.002 | [2] 0.052 | [3] -0.043 | [4] 0.01 | Nexturastat A -0.086 | vemurafenib 0.008 | [5] -0.093 | [6] -0.004 | givinostat -0.058 | barasertib 0

NAA25 (UniProt Q14CX7)
inactive: [1] 0.018 | [2] -0.013 | [3] 0.008 | [4] 0.032 | Nexturastat A -0.065 | vemurafenib 0.024 | [5] 0.007 | [6] -0.017 | givinostat -0.005 | barasertib 0.009

NDUFB4 (UniProt O95168)
inactive: [1] 0.04 | [2] -0.001 | [3] 0 | [4] 0 | Nexturastat A 0.023 | vemurafenib -0.027 | [5] -0.021 | [6] 0.097 | givinostat 0.022 | barasertib -0.003

NAA20 (UniProt P61599)
inactive: [1] 0.07 | [2] -0.031 | [3] 0.005 | [4] 0.006 | Nexturastat A -0.096 | vemurafenib 0.117 | [5] 0.008 | [6] 0.012 | givinostat -0.011 | barasertib -0.002

NDRG3 (UniProt Q9UGV2)
inactive: [1] 0.06 | [2] 0.008 | [3] 0.024 | [4] 0.006 | Nexturastat A -0.01 | vemurafenib -0.011 | [5] 0.065 | [6] 0.013 | givinostat -0.042 | barasertib -0.017

NAA38 isoform 2 (UniProt Q9BRA0)
inactive: [1] 0.018 | [2] 0.041 | [3] 0.018 | [4] -0.044 | Nexturastat A 0.052 | vemurafenib 0.094 | [5] 0.042 | [6] -0.129 | givinostat 0.066 | barasertib -0.025

7 successive entries out of the list so far, quoted:
NDUFAF1 (UniProt Q9Y375)
inactive: [1] -0.009 | [2] 0.023 | [3] 0.009 | [4] 0.026 | Nexturastat A -0.055 | vemurafenib -0.022 | [5] -0.006 | [6] -0.002 | givinostat 0.003 | barasertib -0.004

NDUFS7 (UniProt O75251)
inactive: [1] 0.008 | [2] 0.004 | [3] 0.017 | [4] 0.025 | Nexturastat A -0.019 | vemurafenib -0.025 | [5] 0.028 | [6] -0.039 | givinostat 0.113 | barasertib 0.016

NADK2 (UniProt Q4G0N4)
inactive: [1] -0.026 | [2] 0.027 | [3] -0.01 | [4] -0.015 | Nexturastat A -0.016 | vemurafenib -0.007 | [5] 0 | [6] 0.019 | givinostat -0.022 | barasertib -0.004

NCEH1 isoform 2 (UniProt Q6PIU2)
inactive: [1] 0.002 | [2] 0.052 | [3] -0.043 | [4] 0.01 | Nexturastat A -0.086 | vemurafenib 0.008 | [5] -0.093 | [6] -0.004 | givinostat -0.058 | barasertib 0

NAA25 (UniProt Q14CX7)
inactive: [1] 0.018 | [2] -0.013 | [3] 0.008 | [4] 0.032 | Nexturastat A -0.065 | vemurafenib 0.024 | [5] 0.007 | [6] -0.017 | givinostat -0.005 | barasertib 0.009

NDUFB4 (UniProt O95168)
inactive: [1] 0.04 | [2] -0.001 | [3] 0 | [4] 0 | Nexturastat A 0.023 | vemurafenib -0.027 | [5] -0.021 | [6] 0.097 | givinostat 0.022 | barasertib -0.003

NAA20 (UniProt P61599)
inactive: [1] 0.07 | [2] -0.031 | [3] 0.005 | [4] 0.006 | Nexturastat A -0.096 | vemurafenib 0.117 | [5] 0.008 | [6] 0.012 | givinostat -0.011 | barasertib -0.002

More records follow:

NAT10 (UniProt Q9H0A0)
inactive: [1] 0.059 | [2] 0 | [3] -0.175 | [4] -0.132 | Nexturastat A 0.315 | vemurafenib 0.035 | [5] -0.137 | [6] 0.155 | givinostat 0.211 | barasertib -0.012

NDUFA5 (UniProt Q16718)
inactive: [1] -0.021 | [2] -0.048 | [3] 0.088 | [4] 0.009 | Nexturastat A 0.088 | vemurafenib 0.009 | [5] 0.056 | [6] -0.076 | givinostat 0.004 | barasertib 0.037

NDUFA10 (UniProt O95299)
inactive: [1] -0.065 | [2] -0.025 | [3] 0.024 | [4] 0.03 | Nexturastat A -0.078 | vemurafenib -0.044 | [5] 0.025 | [6] -0.104 | givinostat 0.015 | barasertib 0.028

NACA (UniProt E9PAV3)
inactive: [1] -0.011 | [2] 0.043 | [3] 0.013 | [4] 0.023 | Nexturastat A 0.043 | vemurafenib -0.03 | [5] 0.02 | [6] -0.042 | givinostat -0.01 | barasertib -0.009

NDUFA9 (UniProt Q16795)
inactive: [1] 0.023 | [2] -0.036 | [3] 0.019 | [4] 0.04 | Nexturastat A -0.095 | vemurafenib 0.009 | [5] 0.039 | [6] -0.044 | givinostat 0.041 | barasertib 0.026

NEDD4L (UniProt Q96PU5)
inactive: [1] 0.015 | [2] -0.138 | [3] -0.046 | [4] 0.01 | Nexturastat A -0.059 | vemurafenib 0.049 | [5] 0.019 | [6] 0.013 | givinostat 0.056 | barasertib -0.021

NEDD4 isoform 4 (UniProt P46934)
inactive: [1] -0.069 | [2] -0.011 | [3] -0.025 | [4] 0.047 | Nexturastat A -0.04 | vemurafenib 0.029 | [5] 0.026 | [6] 0.026 | givinostat 0.018 | barasertib 0.009

NAPG (UniProt Q99747)
inactive: [1] 0.044 | [2] -0.115 | [3] 0.077 | [4] 0.006 | Nexturastat A 0.004 | vemurafenib 0.067 | [5] 0.155 | [6] 0.045 | givinostat 0.123 | barasertib 0.107

NAA50 (UniProt Q9GZZ1)
inactive: [1] 0.071 | [2] 0.001 | [3] 0.029 | [4] 0.091 | Nexturastat A -0.037 | vemurafenib 0.03 | [5] 0.08 | [6] -0.028 | givinostat 0.04 | barasertib 0.005

NDUFB3 (UniProt O43676)
inactive: [1] 0.015 | [2] -0.023 | [3] -0.043 | [4] 0.006 | Nexturastat A -0.095 | vemurafenib 0 | [5] -0.03 | [6] -0.093 | givinostat -0.014 | barasertib -0.039

NECTIN2 (UniProt Q92692)
inactive: [1] -0.006 | [2] -0.026 | [3] 0.037 | [4] -0.049 | Nexturastat A -0.117 | vemurafenib 0.016 | [5] 0.019 | [6] 0.005 | givinostat -0.025 | barasertib -0.024

NCOA6 (UniProt Q14686)
inactive: [1] 0.064 | [2] -0.056 | [3] -0.023 | [4] -0.025 | Nexturastat A 0.036 | vemurafenib 0.212 | [5] -0.058 | [6] -0.067 | givinostat -0.008 | barasertib 0.119

NDUFA2 (UniProt O43678)
inactive: [1] 0.021 | [2] -0.108 | [3] 0.017 | [4] -0.012 | Nexturastat A -0.046 | vemurafenib -0.015 | [5] 0.024 | [6] 0.178 | givinostat -0.114 | barasertib -0.003

NARF (UniProt Q9UHQ1)
inactive: [1] -0.058 | [2] -0.029 | [3] -0.018 | [4] 0.004 | Nexturastat A 0.01 | vemurafenib 0.002 | [5] 0.006 | [6] 0.027 | givinostat -0.012 | barasertib 0.042

NAA16 (UniProt Q6N069)
inactive: [1] 0.007 | [2] -0.029 | [3] -0.007 | [4] -0.02 | Nexturastat A -0.004 | vemurafenib 0.008 | [5] -0.042 | [6] 0.069 | givinostat 0.017 | barasertib -0.021

MYO9B (UniProt Q13459)
inactive: [1] -0.065 | [2] -0.006 | [3] 0.019 | [4] -0.059 | Nexturastat A 0.212 | vemurafenib -0.009 | [5] -0.026 | [6] 0.077 | givinostat 0.017 | barasertib -0.04
